PubChem BioAssay AID652259 – Drosophila RNAi Screening Center, 2013

Screen: 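Identify new Wingless signalling regulators in fly cells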 (primary screen)
Cell system: Drosophila clone 8 imaginal disc epithelial cells
Reagents: long dsRNA against Drosophila genes
Conditions: pathway stimulated by co-transfected Wingless expression plasmid
Measured: 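Dual luciferase reads per well after Wingless plasmid stimulation: reporter firefly light and Renilla control light; activity is firefly divided by Renilla, a ratio not deposited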
Direction: firefly reporter light: higher = more Wg reporter light, before normalisation; Renilla control light: higher = more transfected or surviving cells
Hit rule: 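a knock-down is a candidate when at least two out of four statistical tests show it departing from its plate mean; one test alone signals a weak candidate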
Meaning of the calls: active = candidate regulator (raises or lowers reporter); inactive = not a candidate
The screen tested about 22,000 reagents; this is an unselected part of those that have a named target and a result. Of all reagents, 233 (1.1%) got an active call. 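Light values are raw, unnormalised plate reads; the ratio scores behind the reporter calls were not deposited.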 Entries without a mark were called inactive. A plus sign joins genes that one reagent is predicted to hit. Not stated in the record: the amount of reagent, the time to read-out, the dose of the treatment.

Depletion of Ir87a (Ionotropic receptor 87a) [DRSC14836] gave: firefly reporter light, replicate 1 = 22304; Renilla control light, replicate 1 = 4184.
Depletion of Skp2 (S-phase kinase-associated protein 2) [DRSC12329] resulted in: firefly reporter light, replicate 1 = 6000; Renilla control light, replicate 1 = 2922.
ADD1 (ADD domain-containing protein 1) [DRSC07135] scored firefly reporter light, replicate 1 = 6336; Renilla control light, replicate 1 = 2181.
Against drl (derailed) [DRSC03523], the entry reads firefly reporter light, replicate 1 = 7532; Renilla control light, replicate 1 = 2587.
Depletion of CG5500 [DRSC15820] came out at: firefly reporter light, replicate 1 = 9073; Renilla control light, replicate 1 = 3543.
With knock-down of CG10916 [DRSC06012], the screen gave firefly reporter light, replicate 1 = 15115; Renilla control light, replicate 1 = 4233.
CG7824 [DRSC16321] scored firefly reporter light, replicate 1 = 7840; Renilla control light, replicate 1 = 2151.
For l(2)k01209 (lethal (2) k01209) [DRSC06889] the deposit lists firefly reporter light, replicate 1 = 5799; Renilla control light, replicate 1 = 2450.
For CG4022 [DRSC10395], the values are firefly reporter light, replicate 1 = 3029; Renilla control light, replicate 1 = 1789.
After knock-down of CG13983 [DRSC02315], the record shows firefly reporter light, replicate 1 = 1851; firefly reporter light, replicate 2 = 8360; Renilla control light, replicate 1 = 624; Renilla control light, replicate 2 = 2148.
Against Lhr (Lethal hybrid rescue) [DRSC06759], the values are firefly reporter light, replicate 1 = 16486; Renilla control light, replicate 1 = 4928.
After knock-down of Acam + CG17770 [DRSC14110] the results were firefly reporter light, replicate 1 = 14648; Renilla control light, replicate 1 = 16665.
Knock-down of Acam + CG17770 [DRSC15264] gave: firefly reporter light, replicate 1 = 11856; Renilla control light, replicate 1 = 12282.
pinta [DRSC14698] showed firefly reporter light, replicate 1 = 1947; firefly reporter light, replicate 2 = 4492; Renilla control light, replicate 1 = 869; Renilla control light, replicate 2 = 1468.
Not1 [DRSC06787] gave firefly reporter light, replicate 1 = 3371; firefly reporter light, replicate 2 = 11884; Renilla control light, replicate 1 = 576; Renilla control light, replicate 2 = 2988.
Not1 [DRSC06794] scored firefly reporter light, replicate 1 = 8788; Renilla control light, replicate 1 = 1673.
Knock-down of Snap24 (Synaptosomal-associated protein 24kDa) [DRSC16864] came out at: firefly reporter light, replicate 1 = 13846; Renilla control light, replicate 1 = 3940.
